Test results reported in the supplement of paper PMC10849652.
Some of the results follow.

Protein sequences, listed by entry. Tags and fused reporters are not part of them. Lines headed by an entry give the natural chain unless they say otherwise; changes in a name come on top.
UniProt Q12873: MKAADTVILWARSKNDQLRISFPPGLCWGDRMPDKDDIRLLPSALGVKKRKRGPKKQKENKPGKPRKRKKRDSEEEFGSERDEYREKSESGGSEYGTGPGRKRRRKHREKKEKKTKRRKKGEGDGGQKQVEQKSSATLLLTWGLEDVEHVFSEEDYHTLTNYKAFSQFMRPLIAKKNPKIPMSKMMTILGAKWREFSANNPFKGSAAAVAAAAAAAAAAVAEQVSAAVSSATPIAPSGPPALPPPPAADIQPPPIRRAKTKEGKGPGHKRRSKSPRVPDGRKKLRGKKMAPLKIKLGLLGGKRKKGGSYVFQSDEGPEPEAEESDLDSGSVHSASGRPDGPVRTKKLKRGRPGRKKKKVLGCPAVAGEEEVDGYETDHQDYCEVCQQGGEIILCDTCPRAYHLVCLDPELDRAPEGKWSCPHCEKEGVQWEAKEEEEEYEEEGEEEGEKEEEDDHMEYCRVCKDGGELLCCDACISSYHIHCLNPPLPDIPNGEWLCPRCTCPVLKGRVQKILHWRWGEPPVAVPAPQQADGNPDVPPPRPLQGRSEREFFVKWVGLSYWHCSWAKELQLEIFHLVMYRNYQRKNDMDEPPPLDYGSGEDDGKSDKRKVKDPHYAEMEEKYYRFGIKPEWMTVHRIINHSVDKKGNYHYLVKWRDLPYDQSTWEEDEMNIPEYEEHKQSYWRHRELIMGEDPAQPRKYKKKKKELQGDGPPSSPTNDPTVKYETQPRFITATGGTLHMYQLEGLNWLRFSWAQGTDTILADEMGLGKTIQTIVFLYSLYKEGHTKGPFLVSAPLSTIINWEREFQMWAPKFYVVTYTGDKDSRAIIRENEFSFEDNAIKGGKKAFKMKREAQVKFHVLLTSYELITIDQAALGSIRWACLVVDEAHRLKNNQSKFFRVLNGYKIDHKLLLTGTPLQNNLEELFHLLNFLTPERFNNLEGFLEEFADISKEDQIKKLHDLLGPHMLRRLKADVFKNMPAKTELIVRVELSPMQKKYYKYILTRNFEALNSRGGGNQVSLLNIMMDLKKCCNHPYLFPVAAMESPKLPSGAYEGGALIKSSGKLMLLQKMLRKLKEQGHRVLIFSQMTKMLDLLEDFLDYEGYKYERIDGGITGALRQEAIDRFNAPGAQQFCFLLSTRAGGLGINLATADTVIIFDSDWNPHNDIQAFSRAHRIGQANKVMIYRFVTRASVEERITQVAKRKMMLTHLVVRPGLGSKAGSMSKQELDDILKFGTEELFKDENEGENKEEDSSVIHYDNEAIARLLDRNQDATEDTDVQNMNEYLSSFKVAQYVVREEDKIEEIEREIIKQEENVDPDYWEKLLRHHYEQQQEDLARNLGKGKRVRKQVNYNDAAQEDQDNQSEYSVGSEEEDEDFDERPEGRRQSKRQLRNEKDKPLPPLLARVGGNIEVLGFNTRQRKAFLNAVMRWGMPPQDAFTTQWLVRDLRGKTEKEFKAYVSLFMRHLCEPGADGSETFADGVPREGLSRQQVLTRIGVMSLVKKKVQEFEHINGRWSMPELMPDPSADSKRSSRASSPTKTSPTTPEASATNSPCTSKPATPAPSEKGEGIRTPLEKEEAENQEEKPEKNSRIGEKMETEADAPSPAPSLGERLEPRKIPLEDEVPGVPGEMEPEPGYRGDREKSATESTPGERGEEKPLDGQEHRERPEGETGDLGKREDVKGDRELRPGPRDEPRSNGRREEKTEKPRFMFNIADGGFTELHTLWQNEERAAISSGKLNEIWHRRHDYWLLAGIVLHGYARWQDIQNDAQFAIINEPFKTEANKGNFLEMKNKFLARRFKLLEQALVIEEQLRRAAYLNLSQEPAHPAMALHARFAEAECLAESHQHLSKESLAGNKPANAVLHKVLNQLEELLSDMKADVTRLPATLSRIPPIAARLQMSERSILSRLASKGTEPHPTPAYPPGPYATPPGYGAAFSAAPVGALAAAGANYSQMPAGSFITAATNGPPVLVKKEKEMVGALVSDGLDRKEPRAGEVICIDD
UniProt Q8TDI0: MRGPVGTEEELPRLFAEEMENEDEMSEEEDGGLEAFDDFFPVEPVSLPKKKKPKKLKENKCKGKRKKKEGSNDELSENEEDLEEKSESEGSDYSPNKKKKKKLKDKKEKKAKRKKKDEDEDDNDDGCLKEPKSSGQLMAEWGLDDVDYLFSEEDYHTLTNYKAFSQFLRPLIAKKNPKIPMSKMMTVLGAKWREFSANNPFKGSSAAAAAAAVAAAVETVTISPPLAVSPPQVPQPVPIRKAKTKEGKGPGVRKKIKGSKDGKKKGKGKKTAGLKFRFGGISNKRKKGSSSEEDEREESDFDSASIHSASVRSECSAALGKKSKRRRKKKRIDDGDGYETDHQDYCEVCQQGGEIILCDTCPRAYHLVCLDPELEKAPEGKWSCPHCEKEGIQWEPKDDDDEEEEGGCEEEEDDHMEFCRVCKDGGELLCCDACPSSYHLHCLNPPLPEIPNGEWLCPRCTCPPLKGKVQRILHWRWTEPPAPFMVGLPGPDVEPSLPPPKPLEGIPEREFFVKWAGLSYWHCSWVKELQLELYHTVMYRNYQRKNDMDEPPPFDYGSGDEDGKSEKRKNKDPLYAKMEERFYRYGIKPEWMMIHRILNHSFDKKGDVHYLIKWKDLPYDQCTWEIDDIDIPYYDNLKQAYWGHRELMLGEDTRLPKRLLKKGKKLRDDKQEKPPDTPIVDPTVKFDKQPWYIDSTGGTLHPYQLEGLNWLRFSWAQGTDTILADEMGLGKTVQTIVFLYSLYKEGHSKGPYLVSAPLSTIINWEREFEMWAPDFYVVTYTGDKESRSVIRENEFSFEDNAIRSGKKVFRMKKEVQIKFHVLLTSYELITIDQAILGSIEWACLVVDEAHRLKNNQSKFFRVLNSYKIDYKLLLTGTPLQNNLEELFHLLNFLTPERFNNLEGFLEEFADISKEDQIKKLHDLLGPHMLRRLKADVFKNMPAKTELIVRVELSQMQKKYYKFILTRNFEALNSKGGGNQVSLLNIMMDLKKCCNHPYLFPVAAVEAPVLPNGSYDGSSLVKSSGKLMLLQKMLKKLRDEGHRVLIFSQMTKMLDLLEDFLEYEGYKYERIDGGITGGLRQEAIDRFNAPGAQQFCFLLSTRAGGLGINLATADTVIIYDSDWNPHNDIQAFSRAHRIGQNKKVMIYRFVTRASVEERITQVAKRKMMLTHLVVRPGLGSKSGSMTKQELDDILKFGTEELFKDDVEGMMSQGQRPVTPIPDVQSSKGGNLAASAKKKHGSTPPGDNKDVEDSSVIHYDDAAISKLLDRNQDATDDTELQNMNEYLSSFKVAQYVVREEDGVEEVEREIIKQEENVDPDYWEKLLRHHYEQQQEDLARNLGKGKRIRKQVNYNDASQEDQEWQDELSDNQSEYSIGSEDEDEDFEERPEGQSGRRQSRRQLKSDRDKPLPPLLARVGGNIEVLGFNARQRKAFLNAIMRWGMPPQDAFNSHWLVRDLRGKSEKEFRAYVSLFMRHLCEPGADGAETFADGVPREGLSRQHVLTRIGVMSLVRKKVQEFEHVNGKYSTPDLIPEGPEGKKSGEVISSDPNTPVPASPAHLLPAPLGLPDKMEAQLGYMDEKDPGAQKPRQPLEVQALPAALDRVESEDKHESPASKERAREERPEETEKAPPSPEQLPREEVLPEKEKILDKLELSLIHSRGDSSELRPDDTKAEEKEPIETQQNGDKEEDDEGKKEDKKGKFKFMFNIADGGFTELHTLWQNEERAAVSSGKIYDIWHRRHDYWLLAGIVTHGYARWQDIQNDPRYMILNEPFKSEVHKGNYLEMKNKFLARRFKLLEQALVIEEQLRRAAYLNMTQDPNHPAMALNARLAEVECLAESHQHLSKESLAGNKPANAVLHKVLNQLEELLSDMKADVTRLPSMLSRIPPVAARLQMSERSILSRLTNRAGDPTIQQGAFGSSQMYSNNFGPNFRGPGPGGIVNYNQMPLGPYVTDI
UniProt P49336: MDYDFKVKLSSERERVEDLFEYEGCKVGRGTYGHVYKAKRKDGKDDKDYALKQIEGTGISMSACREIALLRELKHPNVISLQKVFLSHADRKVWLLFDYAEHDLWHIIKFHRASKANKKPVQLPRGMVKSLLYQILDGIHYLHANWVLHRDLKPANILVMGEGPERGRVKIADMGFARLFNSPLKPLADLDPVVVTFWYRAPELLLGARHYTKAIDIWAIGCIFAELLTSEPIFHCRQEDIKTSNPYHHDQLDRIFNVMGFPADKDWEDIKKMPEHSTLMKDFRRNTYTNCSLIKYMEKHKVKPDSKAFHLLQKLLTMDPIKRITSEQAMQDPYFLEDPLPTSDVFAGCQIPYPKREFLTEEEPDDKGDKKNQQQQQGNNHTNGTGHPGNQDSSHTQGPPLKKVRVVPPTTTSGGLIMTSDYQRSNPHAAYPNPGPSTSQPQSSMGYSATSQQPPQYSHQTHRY
UniProt Q9Y6H1: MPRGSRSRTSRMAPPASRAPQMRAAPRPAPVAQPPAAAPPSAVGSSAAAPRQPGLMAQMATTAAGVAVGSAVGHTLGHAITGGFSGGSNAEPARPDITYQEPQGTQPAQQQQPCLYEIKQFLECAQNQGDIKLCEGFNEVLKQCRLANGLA
UniProt Q9UHN6: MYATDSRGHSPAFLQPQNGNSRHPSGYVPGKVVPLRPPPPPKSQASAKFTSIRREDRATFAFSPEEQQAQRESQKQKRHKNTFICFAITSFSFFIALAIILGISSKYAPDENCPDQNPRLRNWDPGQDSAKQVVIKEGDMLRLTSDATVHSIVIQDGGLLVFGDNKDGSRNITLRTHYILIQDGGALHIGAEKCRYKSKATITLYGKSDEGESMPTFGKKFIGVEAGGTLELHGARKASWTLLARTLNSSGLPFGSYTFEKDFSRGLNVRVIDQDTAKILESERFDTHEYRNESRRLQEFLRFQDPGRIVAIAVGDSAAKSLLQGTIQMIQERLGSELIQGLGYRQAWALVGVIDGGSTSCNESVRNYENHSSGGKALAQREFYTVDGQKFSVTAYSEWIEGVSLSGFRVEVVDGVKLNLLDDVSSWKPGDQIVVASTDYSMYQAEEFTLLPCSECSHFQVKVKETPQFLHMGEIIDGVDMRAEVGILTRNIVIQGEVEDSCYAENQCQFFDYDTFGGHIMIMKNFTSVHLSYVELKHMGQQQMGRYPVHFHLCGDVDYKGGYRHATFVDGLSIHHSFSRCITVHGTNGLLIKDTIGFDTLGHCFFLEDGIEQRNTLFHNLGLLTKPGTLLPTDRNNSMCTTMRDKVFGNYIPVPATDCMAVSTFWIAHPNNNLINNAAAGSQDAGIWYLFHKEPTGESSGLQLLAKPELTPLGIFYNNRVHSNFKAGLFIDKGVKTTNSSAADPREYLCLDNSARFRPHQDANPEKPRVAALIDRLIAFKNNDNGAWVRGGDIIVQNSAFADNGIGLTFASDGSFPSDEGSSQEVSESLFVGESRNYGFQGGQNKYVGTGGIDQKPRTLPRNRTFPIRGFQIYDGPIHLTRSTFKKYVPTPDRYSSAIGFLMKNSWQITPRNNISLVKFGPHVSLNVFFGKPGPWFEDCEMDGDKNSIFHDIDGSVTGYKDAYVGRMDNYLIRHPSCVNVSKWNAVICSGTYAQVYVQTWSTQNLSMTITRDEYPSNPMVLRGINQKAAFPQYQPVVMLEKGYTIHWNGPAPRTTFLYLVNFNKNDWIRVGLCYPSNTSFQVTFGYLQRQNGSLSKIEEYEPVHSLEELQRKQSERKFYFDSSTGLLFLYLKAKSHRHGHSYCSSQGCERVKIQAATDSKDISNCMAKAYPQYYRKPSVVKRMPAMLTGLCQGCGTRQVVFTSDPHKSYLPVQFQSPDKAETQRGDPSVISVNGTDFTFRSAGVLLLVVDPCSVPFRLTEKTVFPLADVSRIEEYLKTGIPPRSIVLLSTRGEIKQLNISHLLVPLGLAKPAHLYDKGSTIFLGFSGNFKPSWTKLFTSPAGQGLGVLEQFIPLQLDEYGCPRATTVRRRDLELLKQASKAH
UniProt Q9UFW8: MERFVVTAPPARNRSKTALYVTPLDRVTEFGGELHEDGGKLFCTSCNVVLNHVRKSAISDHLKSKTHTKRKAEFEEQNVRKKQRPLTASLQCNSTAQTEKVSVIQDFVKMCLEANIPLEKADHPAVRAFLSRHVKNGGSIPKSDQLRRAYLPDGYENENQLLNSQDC
UniProt Q99618: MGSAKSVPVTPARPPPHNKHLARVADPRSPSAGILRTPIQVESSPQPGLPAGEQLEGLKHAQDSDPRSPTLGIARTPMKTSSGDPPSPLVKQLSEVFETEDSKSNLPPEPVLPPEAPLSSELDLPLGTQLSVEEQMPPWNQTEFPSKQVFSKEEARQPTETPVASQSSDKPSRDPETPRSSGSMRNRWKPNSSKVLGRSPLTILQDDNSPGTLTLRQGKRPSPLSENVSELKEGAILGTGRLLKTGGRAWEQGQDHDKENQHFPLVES
UniProt Q8N4Q1: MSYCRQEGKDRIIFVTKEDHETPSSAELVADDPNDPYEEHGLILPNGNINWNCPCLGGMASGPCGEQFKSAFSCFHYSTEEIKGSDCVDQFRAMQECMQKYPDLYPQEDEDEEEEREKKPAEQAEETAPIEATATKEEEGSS

Experiments:
Test in all cases: log2 fold change, soluble protein after heating vs DMSO (PISA); higher = thermal stabilisation; K562 cells, 10 uM, 30 min; active = over 0.2 and 3.5 SD of the protein, either way, in both replicates (recomputed)
erlotinib = compound: C#Cc1cccc(Nc2ncnc3cc(OCCOC)c(OCCOC)cc23)c1 [erlotinib]
Summary of the method: (§1)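 K562 cells at 2×10^6 cells/mL were given 10 μM compound for 30 min. Aliquots then went through 3 min of heating across 48°C-58°C, were pooled, and were extracted in PBS with 0.5% NP-40 at 4°C, and the supernatant after 21,000xg for 90 min was quantified by TMTpro 16plex LC-MS/MS with channel sums equalised. Thermal stability relative to control samples, from duplicates, is given as log2 fold change.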

[1] = compound: C/C(=N\NC(=O)C1=CC(=CC=C1)S(=O)(=O)N2CCOCC2)/C3=C(C=CC(=C3)Cl)O
Summary of the method: as §1

[2] = compound: C1=CC(=C(C=C1Cl)C2=NC3=NC=CN=C3C(=N2)NC4=CC=NC=C4)F
Summary of the method: as §1

[3] = compound: C1=CC(=CC=C1C2=NC3=C(N2)C=C(C=C3)C(=O)N)OC4=CC=C(C=C4)Cl
Summary of the method: as §1

[4] = compound: C1=CC2=C(C=CC(=C2)/C=C\3/C(=O)NC(=NCC4=CC=CS4)S3)N=C1
Summary of the method: as §1

[5] = compound: C1=CC2=NC=CN=C2C=C1/C=C/3\C(=O)NC(=O)S3
Summary of the method: as §1

[6] = compound: C1=CC=C(C=C1)C2=NC(=C(N2)C3=CC=NC=C3)C4=CC(=C(C=C4)Cl)O
Summary of the method: as §1

[7] = compound: C1=CC=C2C(=C1)C3=NNC4=CC=CC(=C43)C2=O
Summary of the method: as §1

[8] = compound: C1CCN(C1)C(=O)NC2=CC=CC(=C2)NC3=NC=C(C(=N3)NCCC4=CN=CN4)Br
Summary of the method: as §1

[9] = compound: C1CN(CCC1(CC2=CC=C(C=C2)Cl)N)C3=NC=NC4=C3C=CN4
Summary of the method: as §1

Measured: log2 fold change

CDK11B (UniProt P21127)
inactive: erlotinib 0.044 | [1] 0.006 | [2] -0.139 | [3] 0.063 | [4] 0.035 | [5] -0.033 | [6] -0.042 | [7] -0.049 | [8] -0.033 | [9] -0.058

CHML (UniProt P26374)
inactive: erlotinib -0.046 | [1] 0.029 | [2] 0.064 | [3] 0.023 | [4] -0.002 | [5] 0.025 | [6] 0.021 | [7] 0.021 | [8] -0.033 | [9] 0.042

CFL1 (UniProt P23528)
inactive: erlotinib -0.033 | [1] 0.047 | [2] 0.128 | [3] -0.004 | [4] -0.07 | [5] 0.018 | [6] 0.033 | [7] 0.032 | [8] -0.048 | [9] -0.015

CHD3 isoform 3 (UniProt Q12873)
inactive: erlotinib -0.052 | [1] 0.148 | [2] 0.005 | [3] -0.062 | [4] 0 | [5] 0.034 | [6] 0.388 | [7] -0.123 | [8] -0.125 | [9] -0.093

CFAP36 isoform 2 (UniProt Q96G28)
inactive: erlotinib 0.048 | [1] -0.11 | [2] -0.046 | [3] 0.005 | [4] 0.059 | [5] 0.042 | [6] -0.068 | [7] 0.007 | [8] 0.127 | [9] -0.111

CHD5 (UniProt Q8TDI0)
inactive: erlotinib 0.124 | [1] 0.161 | [2] 0.123 | [3] -0.144 | [4] 0.062 | [5] -0.049 | [6] -0.024 | [7] -0.108 | [8] -0.112 | [9] -0.061

2 records drawn at random from the list so far, as already listed:
CFAP36 isoform 2 (UniProt Q96G28)
inactive: erlotinib 0.048 | [1] -0.11 | [2] -0.046 | [3] 0.005 | [4] 0.059 | [5] 0.042 | [6] -0.068 | [7] 0.007 | [8] 0.127 | [9] -0.111

CHD3 isoform 3 (UniProt Q12873)
inactive: erlotinib -0.052 | [1] 0.148 | [2] 0.005 | [3] -0.062 | [4] 0 | [5] 0.034 | [6] 0.388 | [7] -0.123 | [8] -0.125 | [9] -0.093

Continued:

CDC42EP1 (UniProt Q00587)
inactive: erlotinib 0.09 | [1] 0.063 | [2] 0.006 | [3] 0.115 | [4] 0.136 | [5] -0.011 | [6] -0.005 | [7] -0.086 | [8] -0.133 | [9] -0.001

CDCA5 (UniProt Q96FF9)
inactive: erlotinib -0.058 | [1] 0.03 | [2] -0.045 | [3] 0.047 | [4] -0.072 | [5] 0.073 | [6] 0.044 | [7] -0.068 | [8] -0.071 | [9] -0.054

CDK8 (UniProt P49336)
inactive: erlotinib -0.098 | [1] -0.094 | [2] -0.161 | [3] 0.028 | [4] -0.023 | [5] 0.102 | [6] -0.087 | [7] 0.287 | [8] -0.044 | [9] 0.034

CHCHD1 (UniProt Q96BP2)
inactive: erlotinib -0.034 | [1] -0.007 | [2] -0.048 | [3] 0.027 | [4] -0.135 | [5] -0.003 | [6] -0.057 | [7] 0.039 | [8] 0.022 | [9] -0.091

CHKA (UniProt P35790)
inactive: erlotinib 0.012 | [1] -0.008 | [2] 0.036 | [3] -0.018 | [4] 0.001 | [5] -0.119 | [6] 0.069 | [7] -0.188 | [8] 0.005 | [9] -0.021

CETN3 (UniProt O15182)
inactive: erlotinib -0.098 | [1] 0.009 | [2] -0.065 | [3] -0.022 | [4] 0.027 | [5] 0.077 | [6] -0.12 | [7] -0.055 | [8] 0.041 | [9] -0.125

CDV3 (UniProt Q9UKY7)
inactive: erlotinib -0.006 | [1] 0.01 | [2] 0.058 | [3] -0.022 | [4] -0.04 | [5] 0.029 | [6] 0.003 | [7] 0.008 | [8] 0.008 | [9] 0.063

CHCHD2 (UniProt Q9Y6H1)
inactive: erlotinib -0.083 | [1] 0.107 | [2] 0.092 | [3] 0.049 | [4] 0.028 | [5] 0.032 | [6] -0.028 | [7] 0.098 | [8] 0.003 | [9] -0.001

CDC42BPA isoform 6 (UniProt Q5VT25)
inactive: erlotinib -0.081 | [1] 0.115 | [2] -0.022 | [3] 0.008 | [4] -0.337 | [5] -0.011 | [6] 0.03 | [7] 0.073 | [8] -0.03 | [9] -0.396

CDS2 (UniProt O95674)
inactive: erlotinib -0.012 | [1] -0.086 | [2] -0.028 | [3] 0.029 | [4] 0.106 | [5] 0.059 | [6] -0.059 | [7] 0.024 | [8] -0.026 | [9] 0.009

CDKN2AIP (UniProt Q9NXV6)
inactive: erlotinib 0.017 | [1] -0.018 | [2] 0 | [3] 0.056 | [4] 0.018 | [5] 0.009 | [6] 0.036 | [7] 0.007 | [8] -0.006 | [9] -0.021

CEMIP2 (UniProt Q9UHN6)
inactive: erlotinib 0.076 | [1] 0.018 | [2] -0.042 | [3] 0.001 | [4] 0.087 | [5] 0.029 | [6] -0.071 | [7] -0.066 | [8] 0.084 | [9] 0.041

CHAMP1 (UniProt Q96JM3)
inactive: erlotinib 0.083 | [1] 0.004 | [2] 0.075 | [3] 0.03 | [4] 0.023 | [5] 0.014 | [6] -0.01 | [7] -0.06 | [8] 0.004 | [9] 0.064

CERT isoform 3 (UniProt Q9Y5P4)
inactive: erlotinib 0.05 | [1] 0.083 | [2] 0.018 | [3] -0.009 | [4] 0.039 | [5] 0.005 | [6] 0.044 | [7] 0 | [8] -0.054 | [9] -0.007

CDK5RAP3 isoform 4 (UniProt Q96JB5)
inactive: erlotinib 0.089 | [1] 0.027 | [2] 0.042 | [3] -0.017 | [4] 0.01 | [5] 0.023 | [6] 0.033 | [7] 0.041 | [8] -0.003 | [9] -0.068

CGGBP1 (UniProt Q9UFW8)
inactive: erlotinib 0.018 | [1] -0.013 | [2] -0.031 | [3] -0.032 | [4] -0.024 | [5] 0.016 | [6] 0.014 | [7] 0 | [8] -0.043 | [9] 0.005

CHMP3 (UniProt Q9Y3E7)
inactive: erlotinib -0.001 | [1] 0.056 | [2] 0.055 | [3] -0.085 | [4] 0.046 | [5] -0.053 | [6] -0.057 | [7] 0 | [8] -0.029 | [9] 0.036

CDCA3 (UniProt Q99618)
inactive: erlotinib -0.023 | [1] -0.016 | [2] 0.015 | [3] 0.063 | [4] -0.014 | [5] 0.038 | [6] -0.05 | [7] -0.066 | [8] -0.011 | [9] 0.078

CHCHD4 isoform 2 (UniProt Q8N4Q1)
inactive: erlotinib -0.071 | [1] 0.102 | [2] -0.045 | [3] -0.036 | [4] -0.067 | [5] 0.012 | [6] -0.022 | [7] 0.053 | [8] -0.678 | [9] 0.177

CEP44 (UniProt Q9C0F1)
inactive: erlotinib 0.038 | [1] 0.083 | [2] 0.143 | [3] 0.055 | [4] 0.15 | [5] 0.08 | [6] 0.078 | [7] -0.008 | [8] -0.024 | [9] 0.048

CELF1 isoform 4 (UniProt Q92879)
inactive: erlotinib 0.11 | [1] 0.151 | [2] -0.046 | [3] -0.018 | [4] 0.098 | [5] -0.029 | [6] 0.015 | [7] 0.011 | [8] 0.007 | [9] 0.009

CHIC1 (UniProt Q5VXU3)
inactive: erlotinib -0.047 | [1] -0.062 | [2] -0.277 | [3] -0.018 | [4] 0.339 | [5] 0.175 | [6] -0.088 | [7] 0.017 | [8] 0.09 | [9] 0.019

CDK6 (UniProt Q00534)
inactive: erlotinib -0.035 | [1] 0 | [2] -0.053 | [3] 0.02 | [4] 0.027 | [5] 0.018 | [6] -0.031 | [7] 0.04 | [8] 0.017 | [9] -0.034
